From publication PMC6588571
These are yes or no findings as the source states them, for the method shown. For part of these data: Binding seen in cells or lysates may run through a third protein. Some entries that bind do so weakly or less than the wild type. Sequences can lack the tags named with a protein.

Columns and labels:
[1] = biological target: T1, Hrr25(1–394).K38R fused to the Gal4 DNA-binding domain (S. cerevisiae) (UniProt P29295); assay: two-hybrid; baits fused to the GAL4 DNA-binding domain, preys fused to the GAL4 activation domain, co-transformed into reporter strain PJ69-4A; ten-fold serial dilutions spotted on SDC-Trp-Leu, SDC-Trp-Leu-His (growth: weak interaction) and SDC-Trp-Leu-Ade (growth: strong interaction)
T1 sequence: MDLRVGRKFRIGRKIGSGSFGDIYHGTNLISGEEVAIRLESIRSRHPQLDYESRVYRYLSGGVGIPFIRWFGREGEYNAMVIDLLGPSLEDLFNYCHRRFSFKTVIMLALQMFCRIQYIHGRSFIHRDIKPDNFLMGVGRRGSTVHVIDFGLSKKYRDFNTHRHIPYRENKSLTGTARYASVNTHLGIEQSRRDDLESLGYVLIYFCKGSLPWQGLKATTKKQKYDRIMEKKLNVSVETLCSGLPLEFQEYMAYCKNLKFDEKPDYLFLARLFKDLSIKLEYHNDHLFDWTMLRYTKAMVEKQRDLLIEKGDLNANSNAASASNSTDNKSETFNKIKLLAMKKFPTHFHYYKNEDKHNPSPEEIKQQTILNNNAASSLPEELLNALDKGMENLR

[2] = biological target: T2, Enp1 bystin domain (aa 155–470) (S. cerevisiae) (UniProt P38333); assay: as above
T2 sequence: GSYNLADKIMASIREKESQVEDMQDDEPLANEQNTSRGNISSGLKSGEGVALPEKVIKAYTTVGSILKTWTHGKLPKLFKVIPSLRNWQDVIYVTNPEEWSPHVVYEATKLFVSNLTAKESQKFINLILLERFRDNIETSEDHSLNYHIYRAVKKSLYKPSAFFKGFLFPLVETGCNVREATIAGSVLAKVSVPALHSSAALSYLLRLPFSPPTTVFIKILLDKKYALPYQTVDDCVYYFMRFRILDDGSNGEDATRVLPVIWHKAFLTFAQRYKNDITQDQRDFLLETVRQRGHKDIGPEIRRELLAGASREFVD

[3] = biological target: T3, full-length Hrr25 (494 aa) fused to the Gal4 DNA-binding domain (S. cerevisiae) (UniProt P29295); assay: as above
T3 sequence: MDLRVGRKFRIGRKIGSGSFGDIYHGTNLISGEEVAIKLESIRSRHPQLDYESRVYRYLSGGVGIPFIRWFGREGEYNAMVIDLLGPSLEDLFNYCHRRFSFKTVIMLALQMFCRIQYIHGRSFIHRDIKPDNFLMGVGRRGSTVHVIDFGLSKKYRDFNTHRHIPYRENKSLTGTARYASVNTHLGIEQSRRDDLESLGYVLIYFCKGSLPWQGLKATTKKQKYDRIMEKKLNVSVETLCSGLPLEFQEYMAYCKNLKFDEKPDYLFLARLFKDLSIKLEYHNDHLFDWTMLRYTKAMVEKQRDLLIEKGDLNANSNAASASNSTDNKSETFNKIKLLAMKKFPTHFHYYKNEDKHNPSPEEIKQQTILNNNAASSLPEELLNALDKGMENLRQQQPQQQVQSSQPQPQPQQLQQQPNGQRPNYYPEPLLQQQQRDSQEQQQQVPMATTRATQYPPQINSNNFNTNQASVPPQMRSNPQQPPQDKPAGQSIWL

[4] = biological target: T4, Hrr25(1–394) fused to the Gal4 DNA-binding domain (S. cerevisiae) (UniProt P29295); assay: as above
T4 sequence: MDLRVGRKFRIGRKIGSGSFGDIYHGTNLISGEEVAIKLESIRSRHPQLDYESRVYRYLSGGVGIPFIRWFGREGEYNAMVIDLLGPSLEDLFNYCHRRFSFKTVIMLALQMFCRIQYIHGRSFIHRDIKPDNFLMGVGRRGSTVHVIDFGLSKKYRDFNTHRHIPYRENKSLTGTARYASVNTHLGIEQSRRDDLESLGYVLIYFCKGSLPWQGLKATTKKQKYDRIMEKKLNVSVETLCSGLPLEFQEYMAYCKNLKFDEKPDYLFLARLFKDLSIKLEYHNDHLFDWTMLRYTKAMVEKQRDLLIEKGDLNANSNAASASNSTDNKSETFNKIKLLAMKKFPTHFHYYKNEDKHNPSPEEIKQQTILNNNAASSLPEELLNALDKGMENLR

[5] = biological target: T1, Hrr25(1–394).K38R fused to the Gal4 DNA-binding domain (S. cerevisiae); assay: two-hybrid; Y2H strains with Hrr25(1–394).K38R-BD and Ltv1 constructs-AD, transformed with empty plasmid or a URA3 plasmid for ENP1 overexpression under the ADH1 promoter; spotted on SDC-Leu-Trp-Ura, SDC-His-Leu-Trp-Ura and SDC-Ade-Leu-Trp-Ura
[6] = biological target: T5, C-terminally TAP-tagged Tsr1 (S. cerevisiae), Q07381; assay: co-IP; Tsr1-TAP pre-40S particles from yeast lysate bound to IgG beads, eluted with TEV protease, western blotting; wild-type, rps20Δloop, rio2.D253A and ltv1 phosphomutant strains; in the ATP assays the bound particles were incubated with or without 1 mM ATP for 30 min at 4 °C (50 mM TRIS pH 7.5, 100 mM NaCl, 5 mM MgCl2, 0.075% NP-40, 1 mM DTT) and washed before elution; details: remark: other sources report otherwise
T5 chain: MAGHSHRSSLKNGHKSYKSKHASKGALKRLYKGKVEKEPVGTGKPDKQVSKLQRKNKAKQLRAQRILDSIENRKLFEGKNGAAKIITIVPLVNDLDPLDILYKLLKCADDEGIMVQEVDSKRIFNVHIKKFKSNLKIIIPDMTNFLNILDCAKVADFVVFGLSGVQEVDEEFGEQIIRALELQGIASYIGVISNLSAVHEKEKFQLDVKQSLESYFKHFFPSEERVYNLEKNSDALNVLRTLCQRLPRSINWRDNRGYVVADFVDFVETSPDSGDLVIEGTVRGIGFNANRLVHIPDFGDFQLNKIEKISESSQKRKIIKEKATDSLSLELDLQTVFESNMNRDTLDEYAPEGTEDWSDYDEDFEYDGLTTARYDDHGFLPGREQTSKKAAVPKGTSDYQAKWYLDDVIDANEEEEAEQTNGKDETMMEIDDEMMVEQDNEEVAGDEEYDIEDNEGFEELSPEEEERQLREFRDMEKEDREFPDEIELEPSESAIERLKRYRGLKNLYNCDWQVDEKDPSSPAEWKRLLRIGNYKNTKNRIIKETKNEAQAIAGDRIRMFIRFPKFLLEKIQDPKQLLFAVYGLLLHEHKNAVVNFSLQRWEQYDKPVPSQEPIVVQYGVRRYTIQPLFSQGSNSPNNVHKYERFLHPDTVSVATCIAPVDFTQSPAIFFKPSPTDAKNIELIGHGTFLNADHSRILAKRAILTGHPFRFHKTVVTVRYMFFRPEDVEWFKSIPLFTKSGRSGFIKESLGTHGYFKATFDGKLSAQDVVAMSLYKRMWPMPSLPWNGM

Measured: binding

B1: Ltv1 fused to the Gal4 activation domain (protein, UniProt P34078 1-463)
chain: MSKKFSSKNSQRYVVVHRPHDDPSFYDTDASAHVLVPVSNPNKTSPEADLRKKDVSSTKPKGRRAHVGEAALYGINFDDSEYDYTQHLKPIGLDPENSIFIASKGNEQKVEKKNIEDLFIEPKYRRDEIEKDDALPVFQRGMAKPEYLLHQQDTTDEIRGFKPDMNPALREVLEALEDEAYVVNDDVVVEDISKKTQLQGDNYGEEEKEDDIFAQLLGSGEAKDEDEFEDEFDEWDIDNVENFEDENYVKEMAQFDNIENLEDLENIDYQADVRRFQKDNSILEKHNSDDEFSNAGLDSVNPSEEEDVLGELPSIQDKSKTGKKKRKSRQKKGAMSDVSGFSMSSSAIARTETMTVLDDQYDQIINGYENYEEELEEDEEQNYQPFDMSAERSDFESMLDDFLDNYELESGGRKLAKKDKEIERLKEAADEVSKGKLSQRRNRERQEKKKLEKVTNTLSSLKF
not listed: [6]
binds: all other assays above

B2: Nob1 (endogenous), Q08444 1-459 (enzyme)
chain: MTENQTAHVRALILDATPLITQSYTHYQNYAQSFYTTPTVFQEIKDAQARKNLEIWQSLGTLKLVHPSENSIAKVSTFAKLTGDYSVLSANDLHILALTYELEIKLNNGDWRLRKKPGDALDASKADVGTDGKQKLTEDNKKEEDSESVPKKKNKRRGGKKQKAKREAREAREAENANLELESKAEEHVEEAGSKEQICNDENIKESSDLNEVFEDADDDGDWITPENLTEAIIKDSGEDTTGSLGVEASEEDRHVALNRPENQVALATGDFAVQNVALQMNLNLMNFMSGLKIKRIRNYMLRCHACFKIFPLPKDGKPKHFCASCGGQGTLLRCAVSVDSRTGNVTPHLKSNFQWNNRGNRYSVASPLSKNSQKRYGKKGHVHSKPQENVILREDQKEYEKVIKQEEWTRRHNEKILNNWIGGGSADNYISPFAITGLKQHNVRIGKGRYVNSSKRRS
binds: [6]
